According to PubChem BioAssay AID194 (DTP/NCI, 2004):
The list is a part of this screen's results and no random one: it is rich in T/C values a quarter to a half above the control, in often repeated tests (any T/C) and in doses without a T/C. Other doses and runs of a compound stand elsewhere. T/C: endpoint of the treated group in % of that of the vehicle group. Some entries give survivors of the animals treated and no T/C: the source files T/C as zero there, which appears to mark a toxic dose or a test without result, not a measured value. Some doses without a T/C left all or most animals alive at the check, yet need not have been tolerated: survival well below the control is almost never listed, so the zero probably covers shortened survival too. Survivors were counted at the toxicity check, usually on the fifth day, unless a day is given; later deaths do not show. Schedule codes are those of the source, read here as Q, the interval in days (D) or hours (H), X, the number of doses. For survival time, this PubChem deposit counts one and a half times the control or more as active, and values a quarter to a half above the control carry no call in these data; other NCI protocols may use other cut-offs. Where a SMILES comes first, the peptide text is derived from it. Bridges are numbered along the chain shown (N, C = ends). Roman numbers before positions name the chains, in order. [ ]: non-standard residue; d: D form. The star is where a group is joined. Quinoxaline2carbonyl = O=C(c1cnc2ccccc2n1)*; NMeV = CN[CH](C(=O)O)C(C)C; NMeC = CN[CH](CS)C(=O)O

Test system: BDF1 mice, B16 melanoma s.c., survival/tumor T/C
Test: NCI In Vivo Anticancer Drug Screen. Data for tumor model B16 Melanoma (subcutaneous) in B6D2F1 (BDF1) mice
Conditions: T/C endpoint: median survival time, higher T/C = longer survival
Protocol: The antitumor activity of compounds was measured in mice bearing transplantable tumors. Survival or tumor size were measured and the results are expressed as the measurement made in the treated group (T) divided by the measurement made in the vehicle treated control group (C). The tumor model used in this assay is B16 Melanoma (subcutaneous) in B6D2F1 (BDF1) mice

[1] = dose: 75.0 mg/kg/injection, schedule: Q01DX001 (ip), vehicle: saline

**Q.** CC1(C)OCC(CO)(Nc2nc(N3CC3)nc(N3CC3)n2)CO1 was tested. Which survivor count (dose: 13.0 mg/kg/injection, schedule: Q04DX002 (ip), vehicle: saline) did it give?
**A.** The survivor count was 5 of 6.

**Q.** What about the survivor count (dose: 20.0 mg/kg/injection, schedule: Q04DX002 (ip), vehicle: saline) of the same molecule?
**A.** Its survivor count is 6 of 6.

**Q.** What about the survivor count (dose: 30.0 mg/kg/injection, schedule: Q04DX002 (ip), vehicle: saline) of the same molecule?
**A.** Its survivor count is 3 of 6.

**Q.** What about the survivor count (dose: 34.0 mg/kg/injection, schedule: Q01DX001 (ip), vehicle: saline) of the same molecule?
**A.** Its survivor count is 5 of 6.

**Q.** And the survivor count (dose: 50.0 mg/kg/injection, schedule: Q01DX001 (ip), vehicle: saline)?
**A.** The survivor count was 5 of 6.

**Q.** What about the survivor count [1] of the same molecule?
**A.** Its survivor count is 4 of 6.

**Q.** Which survivor count (dose: 180.0 micrograms/kg/injection, schedule: Q01DX009 (ip), vehicle: Klucel (hydroxypropylcellulose) (HPC)) does the source give for CC1NC(=O)C(NC(=O)c2cnc3ccccc3n2)COC(=O)C(C(C)C)N(C)C(=O)C2CSSCC(C(=O)N(C)C(C(C)C)C(=O)OCC(NC(=O)c3cnc4ccccc4n3)C(=O)NC(C)C(=O)N2C)N(C)C1=O (stereo not drawn) (I: Quinoxaline2carbonyl-SA[NMeC][NMeV] / II: Quinoxaline2carbonyl-SA[NMeC][NMeV]; ester I:1-II:C, I:C-II:1; disulfide I:3-II:3; configuration not given here) here?
**A.** Its survivor count is 10 of 10.

**Q.** With COC1/C=C\C=C(/C)C(=O)NC2=CC(=O)C(=O)C(=C2O)CC(C)CC(OC)C(O)C(C)/C=C(\C)C1OC(N)=O (stereo not drawn) as the molecule, how does the survivor count (dose: 1.56 mg/kg/injection, schedule: Q01DX005 (ip), vehicle: other) read?
**A.** Its survivor count is 6 of 6.

**Q.** And the survivor count (dose: 12.5 mg/kg/injection, schedule: Q01DX005 (ip), vehicle: other)?
**A.** Its survivor count is 5 of 6.

**Q.** What about the survivor count (dose: 25.0 mg/kg/injection, schedule: Q01DX005 (ip), vehicle: other) of the same molecule?
**A.** Its survivor count is 0 of 6.

**Q.** Which T/C (dose: 25.0 mg/kg/injection, schedule: Q01DX009 (ip), vehicle: saline) does the source give for CC1(C)N=C(N)N=C(N)N1c1ccc(OCC(=O)N2CCOCC2)c(Cl)c1 here?
**A.** The T/C was 126 % of control.

**Q.** What about the survivor count (dose: 200.0 mg/kg/injection, schedule: Q01DX009 (ip), vehicle: saline) of the same molecule?
**A.** The survivor count was 4 of 6.

**Q.** For Cc1c[n+]2c3ccccc3c3ccccc3c2s1, which T/C (dose: 5.0 mg/kg/injection, schedule: Q01DX009 (ip), vehicle: Klucel (hydroxypropylcellulose) (HPC)) is on record?
**A.** Its T/C is 129 % of control.

**Q.** What about the survivor count (dose: 10.0 mg/kg/injection, schedule: Q01DX009 (ip), vehicle: Klucel (hydroxypropylcellulose) (HPC)) of the same molecule?
**A.** Its survivor count is 10 of 10.

**Q.** And the survivor count (dose: 40.0 mg/kg/injection, schedule: Q01DX009 (ip), vehicle: Klucel (hydroxypropylcellulose) (HPC))?
**A.** The survivor count was 0 of 10.

**Q.** Which results are given for COc1cc([C@@H]2c3cc4c(cc3[C@@H](OC3OC5COC(C)OC5C(O)C3O)[C@H]3COC(=O)[C@H]23)OCO4)cc(OC)c1O (stereo partly drawn)?
**A.** T/C (dose: 4.5 mg/kg/injection, schedule: Q01DX009 (ip), vehicle: saline): 135 % of control; T/C (dose: 18.0 mg/kg/injection, schedule: Q04DX003 (ip), vehicle: saline): 142 % of control; T/C (dose: 27.0 mg/kg/injection, schedule: Q04DX003 (ip), vehicle: saline): 136 % of control; survivor count [1]: 10 of 10

**Q.** COc1cc2c(c(OC)c1OC)-c1cc3c(cc1[C@@H](OC(C)=O)[C@@H]1COC(=O)[C@H]1C2)OCO3 was tested. Which survivor count (dose: 2.5 mg/kg/injection, schedule: Q01DX009 (ip), vehicle: Klucel (hydroxypropylcellulose) (HPC)) did it give?
**A.** Its survivor count is 10 of 10.

**Q.** With CC1(C)N=C(N)N=C(N)N1c1ccc(OCCOc2ccc(S(=O)(=O)F)cc2)c(Cl)c1 as the molecule, how does the T/C (dose: 50.0 mg/kg/injection, schedule: Q04DX003 (ip), vehicle: saline) read?
**A.** Its T/C is 125 % of control.

**Q.** And the survivor count (dose: 200.0 mg/kg/injection, schedule: Q04DX003 (ip), vehicle: saline)?
**A.** The survivor count was 6 of 6.

**Q.** With CS(C)=O as the molecule, how does the survivor count (dose: 1.5 grams/kg/injection, schedule: Q01DX009 (ip), vehicle: saline) read?
**A.** The survivor count was 10 of 10.

**Q.** For CCCCC[C@H](O)/C=C/[C@@H]1[C@@H](C/C=C\CCCC(=O)O)[C@@H](O)C[C@H]1O, which T/C (dose: 10.0 mg/kg/injection, schedule: Q04DX002 (ip), vehicle: saline with Tween-80) is on record?
**A.** Its T/C is 139 % of control.

**Q.** What about the survivor count (dose: 20.0 mg/kg/injection, schedule: Q04DX002 (ip), vehicle: saline with Tween-80) of the same molecule?
**A.** The survivor count was 2 of 3.

**Q.** What about the T/C (dose: 40.0 mg/kg/injection, schedule: Q04DX002 (ip), vehicle: saline with Tween-80) of the same molecule?
**A.** The T/C was 139 % of control.

**Q.** And the T/C (dose: 80.0 mg/kg/injection, schedule: Q04DX002 (ip), vehicle: saline with Tween-80)?
**A.** The T/C was 127 % of control.

**Q.** And the survivor count (dose: 320.0 mg/kg/injection, schedule: Q04DX002 (ip), vehicle: saline with Tween-80)?
**A.** Its survivor count is 0 of 3.

**Q.** What does the source list for NC(=O)c1[nH]nc(C2OC(CO)C(O)C2O)c1O (stereo not drawn)?
**A.** survivor count (dose: 2.5 mg/kg/injection, schedule: Q01DX009 (ip), vehicle: saline): 10 of 10; survivor count (dose: 5.0 mg/kg/injection, schedule: Q01DX009 (ip), vehicle: saline): 10 of 10

**Q.** COc1cccc2c1C(=O)c1c(O)c3c(c(O)c1C2=O)CC(O)(C(=O)CO)CC3OC1CC(N)C(O)C(C)O1 (stereo not drawn) was tested. Which T/C (dose: 11.7 mg/kg/injection, schedule: Q01DX009 (ip), vehicle: saline) did it give?
**A.** Its T/C is 125 % of control.

**Q.** What about the T/C (dose: 23.4 mg/kg/injection, schedule: Q01DX009 (ip), vehicle: saline) of the same molecule?
**A.** Its T/C is 147 % of control.

**Q.** And the survivor count (dose: 46.8 mg/kg/injection, schedule: Q01DX009 (ip), vehicle: saline)?
**A.** The survivor count was 10 of 10.
